Data on one molecule can be found in publication PMC10724293, “New ruthenium-xanthoxylin complex eliminates colorectal cancer stem cells by targeting the heat shock protein 90 chaperone” (Cell Death & Disease, 2023).

Molecules are shown by their SMILES.

The experiment concerns MCF-7. Nature of the experiment: Alamar blue cytotoxicity assay. The experiment is classed as cell-based. As to conditions: Homo sapiens, MCF7, 72 h, read-out: IC50 and 95%CI. As to the method: The Alamar blue assay was used to determine cell viability as previously described. Cells were seeded into 96-well plates at a density of 7 × 10^3 cells per well for adherent cells or 3 × 10^4 cells per well for suspended cells. The drug was added to each well after 24 h of incubation for adherent cells or immediately for suspended cells and incubated for an additional 72 h. […] Each well received 100 µM resazurin (Sigma-Aldrich Co. St. Louis, MO, United States) four (for cell lines) or 24 (for primary culture) h before the end of the incubation. A SpectraMax 190 Microplate Reader (Molecular Devices, Sunnyvale, CA, USA) was used to measure absorbance at 570 and 600 nm.
For orientation: The colour change of resazurin is a common sign of viable cells or microbes.

As usually defined, the IC50 is the concentration that inhibits the measured activity by half. As for `COc1cccc2c1C(=O)c1c(O)c3c(c(O)c1C2=O)C[C@@](O)(C(=O)CO)C[C@@H]3O[C@H]1C[C@H](N)[C@H](O)[C@H](C)O1` [DOX, Doxorubicin, reference compound], the IC50 came to 1760 nM.
